This is one part of the list.

Chains of the proteins cited; added tags and fusions are not shown.
UniProt Q0JBA9, entry or part of it: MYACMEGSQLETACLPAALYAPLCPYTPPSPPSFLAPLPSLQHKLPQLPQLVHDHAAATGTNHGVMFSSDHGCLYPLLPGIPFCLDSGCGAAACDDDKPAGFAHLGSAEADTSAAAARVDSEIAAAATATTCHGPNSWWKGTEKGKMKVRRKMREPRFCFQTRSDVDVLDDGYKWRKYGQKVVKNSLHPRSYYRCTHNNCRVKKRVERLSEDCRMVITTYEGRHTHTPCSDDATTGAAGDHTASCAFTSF

This experiment concerns the target OsWRKY34 (Oryza sativa, UniProt Q0JBA9 1-250). The experiment can be described thus: protein-binding microarray (RPBM); PBS, 2% BSA, 51.3 ng/ul salmon testes DNA, 50 uM zinc acetate, 200 nM TF, 25 C, 1 h; high values mean tight binding. The conditions noted are these: protein: recombinant; tags: N-terminal polyhistidine and DsRed monomer fusion (pET32a); label: CyDye5-dUTP incorporated in the synthesized complementary strand; 3' TTTTT single-stranded linker to array surface; dsDNA, one strand shown. Summed up: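 Polyhistidine-tagged DsRed fusions of transcription factors, joined at the N-terminus, were expressed in E. coli BL21-CodonPlus and isolated on Ni–NTA. They were incubated at 200 nM for 1 h at 25 °C on a custom Agilent array, double-stranded and BSA-blocked, in PBS with 2% BSA, salmon testes DNA and 50 µM zinc acetate. The binding signal is per-feature fluorescence intensity (arbitrary units) read on an Axon 4000B scanner after washing.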
For “CGGAACCGCTCCTCGAGAAGCTCTCGAATTCCTCGTCGTCCGGAGTCACCTAGTGCAG”, the binding signal is 9310 fluorescence intensity (a.u.).

As for “CCGGGCCCCGCCGCTTTGCCACCCAAATCTCCCGCCATTTCGGAGTCACCTAGTGCAG”, the binding signal was 9060 fluorescence intensity (a.u.).

Take “GGATTTCCACGTAAAATTCGTGTCTCCGTTGTGCATCTATCGGAGTCACCTAGTGCAG”: the binding signal was 8150 fluorescence intensity (a.u.).

Turning to “AATATTCTTCACTGCCATGGATCAATCATATGATCCTTTGCGGAGTCACCTAGTGCAG”, the binding signal is 8260 fluorescence intensity (a.u.).

For “CTTTCCTTTCTGTCGCGGCCAACTCCTCGCCACCACGCCGCGGAGTCACCTAGTGCAG”, the binding signal is 9020 fluorescence intensity (a.u.).

In the case of “GCGCAAGCCCAGCCGCCTCGTCGTGTTCGCGTTCGTCGCGCGGAGTCACCTAGTGCAG”, the binding signal was 8820 fluorescence intensity (a.u.).

As for “AAATAGCCACATTTCTTACGCGTTGCAATTCTATCATCTCCGGAGTCACCTAGTGCAG”, the binding signal is 9400 fluorescence intensity (a.u.).

As to “TTGGCAGCACTTTTGCAATTGCAATCTCCATTGTTTTGTCCGGAGTCACCTAGTGCAG”, the binding signal is 12700 fluorescence intensity (a.u.).

“ATTGTTTAAGTTTATTATTAGCCTAGCGGGAGGGGTGTTTCGGAGTCACCTAGTGCAG”: the binding signal is 9560 fluorescence intensity (a.u.).

For the sequence “GATCTTGAGAAAGGGGCCGGCGGGGTGGGTGTGGAAGACTCGGAGTCACCTAGTGCAG”, the binding signal was 11700 fluorescence intensity (a.u.).

Regarding “CCCACCGTTTCTCTCCCTTGCCGGCTACTGGCCATGGCTTCGGAGTCACCTAGTGCAG”, the binding signal was 9060 fluorescence intensity (a.u.).

Consider “GAATTTGCACGGTCTCGATCTTGTGTTGCTACTCCACTCCCGGAGTCACCTAGTGCAG”, for which the binding signal is 14700 fluorescence intensity (a.u.).

Turning to “TATATTTATTTGACCGTAACGTCTTCCCCATAGCAGAGTGCGGAGTCACCTAGTGCAG”, the binding signal is 8130 fluorescence intensity (a.u.).

For “TTTTATACTTCCATAGATGTTATGTGTGTTCGATGCTCACCGGAGTCACCTAGTGCAG”, the binding signal was 8030 fluorescence intensity (a.u.).

On to “ATGCATCATCATCATCATCATCATCCTCCTCTTTGACCCGCGGAGTCACCTAGTGCAG”, for which the binding signal is 8320 fluorescence intensity (a.u.).

On to “CGCGCGCGCGCCCACACACACACTCACATTCTCTCTGCACCGGAGTCACCTAGTGCAG”, for which the binding signal was 9450 fluorescence intensity (a.u.).

For the sequence “GTTCTGTTTAGGGGCCGGGGTGGCATAACAGAATAAGTTGCGGAGTCACCTAGTGCAG”, the binding signal was 9040 fluorescence intensity (a.u.).

Take “CCAAGCCGCGGACTTCTCTTTTTTCTTTTCTTTTCTCTATCGGAGTCACCTAGTGCAG”: the binding signal was 10300 fluorescence intensity (a.u.).

Consider “TATATTGCGCGTCTTAAAATTCAGCTATTGTTTCGTTGAACGGAGTCACCTAGTGCAG”, for which the binding signal was 8120 fluorescence intensity (a.u.).

Take “TCTTTTTTATGCCCTGGTCTTAGCTTACGTATGTTTTTACCGGAGTCACCTAGTGCAG”: the binding signal is 10500 fluorescence intensity (a.u.).

As to “TATTTTCCTGATGTTTTGCAGCATACTCTTTTGTTTTCAACGGAGTCACCTAGTGCAG”, the binding signal was 9390 fluorescence intensity (a.u.).

On to “ACCTTTGAATTCTTATAAATACCACGAATTCATCCTGTCCCGGAGTCACCTAGTGCAG”, for which the binding signal is 8110 fluorescence intensity (a.u.).

As for “TTTTTTTTTGCGAGGAACTACACTATTTCTTTTAGAACCACGGAGTCACCTAGTGCAG”, the binding signal is 8380 fluorescence intensity (a.u.).

Consider “ATATCCCCACCACGCAACACGGGCAATTCGGCGCGCGTGCCGGAGTCACCTAGTGCAG”, for which the binding signal was 8370 fluorescence intensity (a.u.).

For “TTATCTCGCGATTTACATACAGCCTATGCAATTAGCTTTTCGGAGTCACCTAGTGCAG”, the binding signal was 8050 fluorescence intensity (a.u.).

Turning to “CTTCCTTTTCTCTTCTTCTTCTTCTTCTTTTGCGTGGGGACGGAGTCACCTAGTGCAG”, the binding signal is 9650 fluorescence intensity (a.u.).

Consider “TCTTTAGTTCAGTTAATCCTCCTTTTAAAAGGATAGCTCTCGGAGTCACCTAGTGCAG”, for which the binding signal was 8200 fluorescence intensity (a.u.).

For “GTGATGTAAGTTGGCAATAATTTCCCTTGCCATTTTGTTTCGGAGTCACCTAGTGCAG”, the binding signal is 8630 fluorescence intensity (a.u.).

Turning to “TGTTAAGTATGTTGTTGTTGTGTCCCTTGCTTCATTGGTGCGGAGTCACCTAGTGCAG”, the binding signal was 10500 fluorescence intensity (a.u.).

Turning to “CCTATGTATAGTGCTTAGATGCCGTTGTCCGAAGGTTCAGCGGAGTCACCTAGTGCAG”, the binding signal was 9050 fluorescence intensity (a.u.).

Consider “TTTTATTTTATACCGGTTCATATTATTTCACAGTATTACTCGGAGTCACCTAGTGCAG”, for which the binding signal was 8360 fluorescence intensity (a.u.).

Take “GCGCCCACCGCTTCCCGCTCCTTCACGCTCTCCACTCCGCCGGAGTCACCTAGTGCAG”: the binding signal was 8770 fluorescence intensity (a.u.).

Regarding “TCCATTGCTTTCCTGTATGGACCGTGTTATAACATGCAATCGGAGTCACCTAGTGCAG”, the binding signal is 10700 fluorescence intensity (a.u.).

As to “TGCATGGGTGGTGGTTTTTTTTCTTCGTTTTTCTGAGTACCGGAGTCACCTAGTGCAG”, the binding signal is 12600 fluorescence intensity (a.u.).

With “TTTTATGTTTGTTGGTTGTTGAGTTTATGTGATTATATTTCGGAGTCACCTAGTGCAG”, the binding signal is 9050 fluorescence intensity (a.u.).

Regarding “AATATAAACCCTGATTTGTACCCATACCTCCATAATTCAACGGAGTCACCTAGTGCAG”, the binding signal is 10400 fluorescence intensity (a.u.).

Consider “TACGCGTTATTTGTTTTTCGCAGCGTTTCCTTTTTTTTTTCGGAGTCACCTAGTGCAG”, for which the binding signal is 9540 fluorescence intensity (a.u.).

As to “GTTGGGATCTAGCTTGTTCTAGCGATTGTTTTTTTTTTATCGGAGTCACCTAGTGCAG”, the binding signal is 8170 fluorescence intensity (a.u.).

As for “GATGATTCGGAGTTAGTAGTGGCCTATCCTATTAAACTTGCGGAGTCACCTAGTGCAG”, the binding signal is 8160 fluorescence intensity (a.u.).

Turning to “GCCTCTCCTTTTTATCTGCTGTGGATTGGATAATTGGACACGGAGTCACCTAGTGCAG”, the binding signal was 8250 fluorescence intensity (a.u.).

Regarding “GGTTATATCCGATTTTACGGTTAAGGGGTGTGATTTGACCCGGAGTCACCTAGTGCAG”, the binding signal was 9360 fluorescence intensity (a.u.).

As to “CGACGCTGATCTCAAATATTTCGACCACCATTGCCCGTATCGGAGTCACCTAGTGCAG”, the binding signal is 9900 fluorescence intensity (a.u.).

“TATATTTGTCAAGGTTATTGGAGATCCTTCCTTGGGTTCCCGGAGTCACCTAGTGCAG”: the binding signal is 8050 fluorescence intensity (a.u.).

Take “TATCATTTCTCTCGATGATTCCTTTTTCTCTTTTGTTCATCGGAGTCACCTAGTGCAG”: the binding signal was 8580 fluorescence intensity (a.u.).

Take “CAGCTGGCACCACCCATTCCTCGCGTCGCATCGCACTTGTCGGAGTCACCTAGTGCAG”: the binding signal is 13500 fluorescence intensity (a.u.).

Regarding “TTGGTTGATTAATACATAAGGTAGTCTTGGTTATATCCGACGGAGTCACCTAGTGCAG”, the binding signal is 8320 fluorescence intensity (a.u.).

For the sequence “TCTCTCGTTTTCCACACACACGTTTTTTAAACTGCTAAACCGGAGTCACCTAGTGCAG”, the binding signal is 10200 fluorescence intensity (a.u.).

On to “CCTCCATGGATCGATCGATCTCGACGACGACCTTGCACTACGGAGTCACCTAGTGCAG”, for which the binding signal is 8290 fluorescence intensity (a.u.).

With “TTGGGTTGGCATGAAAGTGCCTTGTGATGATACTGATAGACGGAGTCACCTAGTGCAG”, the binding signal was 9960 fluorescence intensity (a.u.).

“ATCTTTCAATCTATGTATTATTTCAATCTACGTATTAATACGGAGTCACCTAGTGCAG”: the binding signal was 10500 fluorescence intensity (a.u.).

Turning to “CCCACATCGACCATCCTGCCTTGTACGTCATCCCCGCCCTCGGAGTCACCTAGTGCAG”, the binding signal is 10900 fluorescence intensity (a.u.).

For the sequence “CTGTGTGGCGGCGGCAGCGGTCCCGGTGGAGTGGGAGGGGCGGAGTCACCTAGTGCAG”, the binding signal was 11200 fluorescence intensity (a.u.).

As to “TTAGTTGTTACCTTTGTCTCCTTCGTTGATCCATTGAAAGCGGAGTCACCTAGTGCAG”, the binding signal is 10500 fluorescence intensity (a.u.).

Take “TCTTCTTCTCTTCTTCCTTGCATGCTCTAACAAGGAAGCACGGAGTCACCTAGTGCAG”: the binding signal was 8080 fluorescence intensity (a.u.).
